In patent US11246873B2, “Directed differentiation of oligodendrocyte precursor cells to a myelinating cell fate” (The Scripps Research Institute, priority 2011, dated 2022):

Test system: rat optic nerve derived OPCs
Test: High content imaging assay of OPC differentiation (MBP immunostaining, OPERA)
Type: cell-based
Settings: 144 h, 6 days, basal differentiation conditions, MBP expression, read-out: EC50 for induction of OPC differentiation
Protocol: FIG. 1A-C. […] The calculated EC50 values were determined using appropriate Graphpad Prism 5.0 curve fitting software. […] OPCs were plated in 384 well plates at 1000 cells per well in OPC media containing basal PDGF-αα (2 ng/mL) and treated with serial dilutions of compounds. Following six days of compound treatment, cells were fixed and subjected to immunofluorescence analysis using anti-myelin basic protein (MBP) antibody. Image acquisition and quantification of MBP staining was performed using the OPERA imaging system.
FIG. 11A-B. Screen to identify inducers of OPC differentiation. (A) OPCs were maintained as proliferating A2B5-positive cells under basal growth conditions (Neurobasal medium, B27 supplement without Vitamin A, non-essential amino acids, L-Glutamine, 30 ng/ml PDGF). OPCs were plated in basal differentiation media (Neurobasal medium, B27 supplement without Vitamin A, non-essential amino acids, L-Glutamine, 2 ng/ml PDGF), treated with DMSO (<0.1%) or thyroid hormone (1 uM), fixed after 6 days in culture, and stained using antibodies for CNP, O4, or MBP. […]
FIG. 12A-B. Primary hit confirmation. […] (EC50) is defined as the concentration that results in a half maximal increase in the percentage of total cells that express MBP as detected by immunostaining. […]

CN1[C@@H]2CC[C@H]1C[C@@H](OC(c1ccccc1)c1ccccc1)C2 [benztropine]
EC50: ~350 nM
